Values of other authors in patent US20260207540A1 (priority 2020, published 2026).
At least one compound was matched to its structure with a doubt left.

System: SARS-CoV-1 and MERS
Details: patients, SARS-CoV-1 and MERS epidemics

For C[C@H]1C[C@@H]2[C@H]([C@@H](O)C[C@@]3(C)[C@H]2CC[C@]3(O)C(=O)CO)[C@@]2(C)C=CC(=O)C=C12 [methylprednisolone], the treatment benefit is given as “no perceived benefit”.
